Reference: paper PMC6487834
These are yes or no findings as the source states them, for the method shown. In cells and extracts the contact can be indirect. A yes stands for co-enrichment or nearness to the bait. Other partners may have been found. For some assays here: Tags and fused reporters may be left off the sequences shown.

Columns and labels:
[1] = molecular target: T1, DRM2-FLAG-HA (pDRM2-DRM2-FLAG-HA in drm1drm2) (Arabidopsis thaliana) (UniProt Q9M548); test: affinity purification with mass spectrometry; FLAG IP of DRM2-FLAG-HA from flower whole cell extract on anti-FLAG M2 affinity gel, BC500 buffer + 0.1% NP-40 (500 mM KCl, pH 8.0), 4 °C, eluted with 3xFLAG peptide; three main gel bands analysed by nanoLC-MS/MS
T1 sequence: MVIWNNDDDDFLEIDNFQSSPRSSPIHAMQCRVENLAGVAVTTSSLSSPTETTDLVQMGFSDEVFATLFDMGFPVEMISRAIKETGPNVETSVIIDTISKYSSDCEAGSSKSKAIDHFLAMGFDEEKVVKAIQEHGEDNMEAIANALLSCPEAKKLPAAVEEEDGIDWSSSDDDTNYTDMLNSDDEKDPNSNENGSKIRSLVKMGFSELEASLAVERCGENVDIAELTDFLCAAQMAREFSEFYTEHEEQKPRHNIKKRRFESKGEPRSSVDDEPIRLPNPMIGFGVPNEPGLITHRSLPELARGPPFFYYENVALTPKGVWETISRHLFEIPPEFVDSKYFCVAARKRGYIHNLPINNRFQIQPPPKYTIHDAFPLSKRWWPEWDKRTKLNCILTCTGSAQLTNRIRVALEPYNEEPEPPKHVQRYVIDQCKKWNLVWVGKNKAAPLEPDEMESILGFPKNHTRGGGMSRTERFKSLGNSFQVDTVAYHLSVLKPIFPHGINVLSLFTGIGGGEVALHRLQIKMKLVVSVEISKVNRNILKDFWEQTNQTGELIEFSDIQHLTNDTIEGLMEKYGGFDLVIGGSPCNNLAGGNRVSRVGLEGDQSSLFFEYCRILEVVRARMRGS

[2] = molecular target: T2, DRM2, endogenous (Col-0 flowers) (Arabidopsis thaliana (endogenous in flowers)) (UniProt Q9M548); test: conventional chromatographic co-purification with mass spectrometry; Col-0 flower whole cell extract over phosphocellulose P11, DEAE Sephacel, MonoQ and two Superdex200 columns (BC500 + 0.5% NP40); DRM2 followed by immunoblot; fractions 27-29 pooled, 11 gel bands between 62 and 30 kDa analysed by MS/MS
T2 sequence: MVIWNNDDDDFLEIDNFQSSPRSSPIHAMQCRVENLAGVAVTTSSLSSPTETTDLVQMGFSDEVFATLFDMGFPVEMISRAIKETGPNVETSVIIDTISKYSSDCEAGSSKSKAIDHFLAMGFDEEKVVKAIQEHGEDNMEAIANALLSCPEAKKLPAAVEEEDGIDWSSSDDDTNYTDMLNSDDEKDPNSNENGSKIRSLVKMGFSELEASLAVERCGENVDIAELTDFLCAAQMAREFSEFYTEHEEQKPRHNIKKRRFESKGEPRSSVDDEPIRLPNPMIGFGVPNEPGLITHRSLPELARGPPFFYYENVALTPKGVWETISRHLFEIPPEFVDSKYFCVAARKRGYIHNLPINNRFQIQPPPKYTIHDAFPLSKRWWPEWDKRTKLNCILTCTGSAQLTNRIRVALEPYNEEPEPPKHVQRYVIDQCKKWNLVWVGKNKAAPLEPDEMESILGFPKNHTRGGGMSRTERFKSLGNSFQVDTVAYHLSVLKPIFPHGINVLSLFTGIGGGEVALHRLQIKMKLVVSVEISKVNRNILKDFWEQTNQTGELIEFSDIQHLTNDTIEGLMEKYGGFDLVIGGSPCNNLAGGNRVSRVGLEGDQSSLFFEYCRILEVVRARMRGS

binding [1]: binds
binding [2]: binds
B1: U2AF56 Associated Protein 56 (UAP56a/b), endogenous (enzyme, UniProt Q56XG6 1-427)
chain: MGDARDNEAYEEELLDYEEEDEKVPDSGNKVNGEAVKKGYVGIHSSGFRDFLLKPELLRAIVDSGFEHPSEVQHECIPQAILGMDVICQAKSGMGKTAVFVLSTLQQIEPSPGQVSALVLCHTRELAYQICNEFVRFSTYLPDTKVSVFYGGVNIKIHKDLLKNECPHIVVGTPGRVLALAREKDLSLKNVRHFILDECDKMLESLDMRRDVQEIFKMTPHDKQVMMFSATLSKEIRPVCKKFMQDPMEIYVDDEAKLTLHGLVQHYIKLSEMEKNRKLNDLLDALDFNQVVIFVKSVSRAAELNKLLVECNFPSICIHSGMSQEERLTRYKSFKEGHKRILVATDLVGRGIDIERVNIVINYDMPDSADTYLHRVGRAGRFGTKGLAITFVASASDSEVLNQVQERFEVDIKELPEQIDTSTYMPS
